“And” between values parts separate entries of the source, which are not always exact repeats. Equal entries are not always repeated.
Assay: Recovery, accuracy and precision of the CoQ10 plasma assay
Set-up: species or system human
Protocol: Description of the Analysis. 200 μl of a blood plasma sample were supplemented with 50 μl of a 1,4 benzoquinone solution (2 mg/ml) in a test tube and vortexed for 10 seconds. After 10 minutes, 1 ml of n-propanol was added. The test tube was vortexed for 10 seconds and centrifuged at 10,000 rpm for 2 minutes in order to spin down the protein precipitate. 200 μl of the supernatant were injected into the HPLC. […] Mobile phase was constituted by ethanol-methanol (65%-35%) and the flux was 1 ml/min. UV detection was performed at 275 nm.
200 μl of different concentrations of pure oxidized CoQ10 were injected as standards. Working solutions of the standards were in propanol:water (5:1), i.e. the same propanol:water ratio as for the samples. Peak area analysis was performed by a Beckman Gold Data System (DOS version).
Recovery, Accuracy and Precision. Recovery of CoQ10 was based on a comparison between the peaks obtained by spiking samples with increasing concentrations of oxidized CoQ10 and the corresponding peaks of the standard. Recovery was documented at 3 concentrations (1.16, 2.32, and 3.48 μM) with triplicate determinations for each concentration. Intra-assay accuracy and precision were determined using 4 samples, the value of which had been certified by a reference ECD method; each level was assayed 5 times for the intra-assay accuracy and precision test. Inter-assay accuracy and precision were determined over a two-month period using a quality control sample (n=21).

For `COC1=C(OC)C(=O)C(C/C=C(\C)CC/C=C(\C)CC/C=C(\C)CC/C=C(\C)CC/C=C(\C)CC/C=C(\C)CC/C=C(\C)CC/C=C(\C)CC/C=C(\C)CCC=C(C)C)=C(C)C1=O` [CoQ10], the limit of quantitation (UV-HPLC method) was 0.037 µM, the “precision at limit of quantitation” value (at 0.037 μM) was 10.52% and the “Mean of 21 measurements” value (day to day test over a two month period) was 0.80 µM. The “% deviation from nominal value” (day to day test, n=21) was 0.7%, the C.V. % (day to day test, n=21) was 2.16% and the Measured (plasma sample after spiking with CoQ10 1.16 μM) was 1.40 pM. The Measured (plasma sample after spiking with CoQ10 2.32 μM) was 2.56 pM, the Measured (plasma sample after spiking with CoQ10 3.48 μM) was 3.72 pM and the “initial concentration of sample” value (plasma sample before spiking) was 0.29 µM. The Measured (plasma sample, basal concentration) was 0.29 pM, the Deviation % (within run accuracy, deviation from nominal value) was 1.9% and −3.4% and −4.7% and 2.6% and the C.V. % (within run precision, five analyses per sample) was 1.6% and 5.3% and 5.7% and 10.5%. For the same molecule, the “Deviation from nominal values” (within run, all four samples) was ≤ 4.7%.

From US7303921B2, “Method to assay coenzyme Q10 in blood plasma or blood serum” (priority 2002, dated 2007)
